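Genome-wide siRNA knockdown in TC32 Ewing sarcoma cells, comparing luciferase light from an NR0B1-promoter reporter with a CMV-promoter reporter 48 hours after transfection. Each siRNA was applied at 20 nM. A z-score of the log NR0B1-over-CMV signal, less the median of siRNAs with the same seed; more negative means a stronger specific loss of the NR0B1 reporter.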

This is part of the screen; most of the strongest results are not listed here. Sequences are the guide (antisense) strand, without overhang.

Sequence	gene	seed-corrected z-score
UUCGCUACACUUAUAAAGC	ZNF749	0.5422
UUGAUAUCCAACGUACUUC	ZMYM6	0.3845
UCCAUAGUCAGAAUCAUCC	PIH1D3	0.7922
AAGUGAUCCAGAUAAUGCC	PATE1	1.626
UGUUGGAGAAGUGCAGUUC	PHLDA1	0.8107
UCUGGGAAAGCACCGUUGC	CASKIN1	0.2691
UGACUAAUAAGGUCAUUUC	RYK	0.2091
CAUGCACUGACUCCUCAGC	TNFRSF18	-0.8029
UCAUUCUCCACAUAGAGGA	G6PD	0.4662
UUGUGGUUCUCAAGGAUGU	SIX3	-0.8709
UUUGACUGGAGAAACGUGG	CDH17	-0.5743
UGUCCAUUAAGUCUAUUCG	KLHL8	-0.6523
UCUGAUCACCUGAUGAUCC	SPDYE2	0.4786
UUCAGUGUGACUCGAUUGC	BICC1	0.01501
UGUCUAUAAACUUCUGGGC	MYO7B	-0.2553
UCACUGCUUUUAGAAGUCC	CCDC92	-0.6122
UUCCAUCUUGAAAAGCUCG	APCDD1L	0.7268
UGAGGUCAUAGGUUUUCUG	CLCF1	-0.3576
UCUAGAGAGAAAGUGUUCC	NOD2	0.1546
UGUUCUAUCAUGAUGUACC	ABCD2	-0.4359
AAAGCUUCCUCUGUUUUCU	CDCA4	-0.7232
AAUCUAGGUACUCAUAUUC	SELPLG	-0.3713
UGAACCUUUAUUCACCACC	HINT1P1	0.04865
UAACCAGUAGUAGAGGUAG	LRRC17	1.413
UACUGAGACCCAUUGGAGC	TFDP1	-0.5564
UUUAGUAUACCAUUCCACC	NT5C3A	-0.1235
UUCCGGAAAUCUCCAAGCC	AP2B1	-0.5244
UCUGGUUCAUGUAUCUGAC	KDM3A	-1.792
UCUCUGAUGAUAGAUGAGG	ZNF613	0.2182
UUAUGAACACGGAAUGUAG	ZNF552	-0.2457
UUUCUGGACAGAUAACUGC	MED28	0.7511
UCCACGAACCGGUGAAUGC	GMPPB	0.2005
UGAAUCUAAAGGUAGCUGC	MTHFD1	0.3373
AAUAGUCCUAAGAUCUCUC	ABCA5	0.1209
AAACGAUUACUCCAUCUGC	SNX6	0.9593
UCAGGAGUGAAUUGUAGGG	TUBG2	-0.3111
UUAGGAUCAAUCACCUUCC	HNRNPD	0.3784
UCAUCUAACAGGAACAGGG	STK11IP	-0.2963
UGUUCAACCUGAAUCCUGC	SSX1	0.1322

Some entries from above, unchanged:

{"sequence": "UUGUGGUUCUCAAGGAUGU", "gene": "SIX3", "seed-corrected z-score": "-0.8709"}
{"sequence": "UUAGGAUCAAUCACCUUCC", "gene": "HNRNPD", "seed-corrected z-score": "0.3784"}
{"sequence": "UCUAGAGAGAAAGUGUUCC", "gene": "NOD2", "seed-corrected z-score": "0.1546"}
{"sequence": "UUCGCUACACUUAUAAAGC", "gene": "ZNF749", "seed-corrected z-score": "0.5422"}
{"sequence": "UUCCAUCUUGAAAAGCUCG", "gene": "APCDD1L", "seed-corrected z-score": "0.7268"}

Data taken from PubChem BioAssay AID1159506, deposited by NCATS (2015).